Measurements published in publication PMC8357957.
These are yes or no findings as the source states them, for the method shown. Binding seen in cells or lysates may run through a third protein. Some results given as binding are weak or reduced against the parent protein; the word gives no strength.

Sequences of proteins named here, by UniProt entry; tags and fusion partners are left off.
UniProt Q64511: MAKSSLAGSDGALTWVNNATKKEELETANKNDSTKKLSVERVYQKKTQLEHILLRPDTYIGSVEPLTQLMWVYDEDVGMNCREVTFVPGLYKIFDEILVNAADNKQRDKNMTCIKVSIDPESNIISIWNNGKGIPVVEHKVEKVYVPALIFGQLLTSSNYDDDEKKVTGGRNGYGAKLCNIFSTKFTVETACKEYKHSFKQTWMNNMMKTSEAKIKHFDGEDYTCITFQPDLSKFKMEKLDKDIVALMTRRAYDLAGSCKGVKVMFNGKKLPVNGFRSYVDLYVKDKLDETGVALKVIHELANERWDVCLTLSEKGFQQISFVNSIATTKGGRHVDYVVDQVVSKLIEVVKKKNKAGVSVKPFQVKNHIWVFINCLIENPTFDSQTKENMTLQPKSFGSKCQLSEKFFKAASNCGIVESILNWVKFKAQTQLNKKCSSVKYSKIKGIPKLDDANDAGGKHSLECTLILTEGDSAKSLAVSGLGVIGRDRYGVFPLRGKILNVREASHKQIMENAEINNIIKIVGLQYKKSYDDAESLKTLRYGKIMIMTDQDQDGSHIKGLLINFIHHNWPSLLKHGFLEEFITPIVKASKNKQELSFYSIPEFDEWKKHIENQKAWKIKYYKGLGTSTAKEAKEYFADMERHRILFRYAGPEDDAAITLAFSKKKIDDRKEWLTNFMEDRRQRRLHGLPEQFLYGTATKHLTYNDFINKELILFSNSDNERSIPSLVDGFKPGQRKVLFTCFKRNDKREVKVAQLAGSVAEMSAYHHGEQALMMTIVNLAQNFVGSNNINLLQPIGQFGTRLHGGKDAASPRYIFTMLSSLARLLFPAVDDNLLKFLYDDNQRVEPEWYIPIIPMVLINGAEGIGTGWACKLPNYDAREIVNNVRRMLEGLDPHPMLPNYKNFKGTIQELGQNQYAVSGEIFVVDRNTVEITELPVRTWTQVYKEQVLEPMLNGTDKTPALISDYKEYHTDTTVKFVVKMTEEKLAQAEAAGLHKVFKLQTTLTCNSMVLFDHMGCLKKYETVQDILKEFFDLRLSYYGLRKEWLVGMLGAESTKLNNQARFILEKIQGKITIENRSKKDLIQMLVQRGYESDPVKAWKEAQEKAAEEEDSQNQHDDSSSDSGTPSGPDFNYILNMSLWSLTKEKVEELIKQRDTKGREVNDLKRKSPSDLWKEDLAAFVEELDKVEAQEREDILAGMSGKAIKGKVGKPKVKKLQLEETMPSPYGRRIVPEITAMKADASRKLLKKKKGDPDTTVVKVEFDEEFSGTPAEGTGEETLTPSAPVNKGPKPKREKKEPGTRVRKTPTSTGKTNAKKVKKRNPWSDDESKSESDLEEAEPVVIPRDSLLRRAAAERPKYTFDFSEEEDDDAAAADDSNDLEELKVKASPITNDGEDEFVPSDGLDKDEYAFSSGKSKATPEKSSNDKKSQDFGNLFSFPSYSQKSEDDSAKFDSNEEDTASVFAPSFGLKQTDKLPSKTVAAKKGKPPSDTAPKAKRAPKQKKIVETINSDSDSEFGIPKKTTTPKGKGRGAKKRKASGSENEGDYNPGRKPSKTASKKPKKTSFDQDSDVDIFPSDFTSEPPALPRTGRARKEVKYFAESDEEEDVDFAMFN
UniProt P11103: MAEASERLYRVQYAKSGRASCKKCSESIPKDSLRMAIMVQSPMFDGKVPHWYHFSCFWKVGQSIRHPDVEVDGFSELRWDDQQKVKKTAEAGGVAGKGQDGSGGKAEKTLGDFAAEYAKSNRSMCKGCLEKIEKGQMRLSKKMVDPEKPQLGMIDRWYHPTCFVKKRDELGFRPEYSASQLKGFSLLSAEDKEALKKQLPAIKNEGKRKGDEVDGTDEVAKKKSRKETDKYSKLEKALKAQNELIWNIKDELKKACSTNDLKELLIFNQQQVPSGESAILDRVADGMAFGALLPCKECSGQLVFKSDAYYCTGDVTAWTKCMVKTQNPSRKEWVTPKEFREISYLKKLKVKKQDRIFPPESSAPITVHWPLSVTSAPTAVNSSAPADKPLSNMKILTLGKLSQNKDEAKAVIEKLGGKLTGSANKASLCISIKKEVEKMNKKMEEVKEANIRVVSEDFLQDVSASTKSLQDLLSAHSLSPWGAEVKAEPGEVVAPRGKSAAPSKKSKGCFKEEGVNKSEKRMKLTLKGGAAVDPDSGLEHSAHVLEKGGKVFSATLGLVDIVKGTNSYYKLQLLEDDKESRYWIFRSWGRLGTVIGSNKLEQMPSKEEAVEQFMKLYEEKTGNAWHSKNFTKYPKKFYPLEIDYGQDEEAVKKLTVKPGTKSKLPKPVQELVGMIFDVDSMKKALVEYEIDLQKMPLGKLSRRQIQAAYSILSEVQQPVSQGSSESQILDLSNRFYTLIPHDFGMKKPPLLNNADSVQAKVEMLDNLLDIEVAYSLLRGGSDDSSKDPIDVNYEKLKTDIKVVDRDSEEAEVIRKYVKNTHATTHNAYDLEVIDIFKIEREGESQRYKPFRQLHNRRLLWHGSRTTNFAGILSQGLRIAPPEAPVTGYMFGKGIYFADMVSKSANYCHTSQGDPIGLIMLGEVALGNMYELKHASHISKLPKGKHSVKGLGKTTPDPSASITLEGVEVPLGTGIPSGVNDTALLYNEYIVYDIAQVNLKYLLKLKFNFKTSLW
UniProt Q62318: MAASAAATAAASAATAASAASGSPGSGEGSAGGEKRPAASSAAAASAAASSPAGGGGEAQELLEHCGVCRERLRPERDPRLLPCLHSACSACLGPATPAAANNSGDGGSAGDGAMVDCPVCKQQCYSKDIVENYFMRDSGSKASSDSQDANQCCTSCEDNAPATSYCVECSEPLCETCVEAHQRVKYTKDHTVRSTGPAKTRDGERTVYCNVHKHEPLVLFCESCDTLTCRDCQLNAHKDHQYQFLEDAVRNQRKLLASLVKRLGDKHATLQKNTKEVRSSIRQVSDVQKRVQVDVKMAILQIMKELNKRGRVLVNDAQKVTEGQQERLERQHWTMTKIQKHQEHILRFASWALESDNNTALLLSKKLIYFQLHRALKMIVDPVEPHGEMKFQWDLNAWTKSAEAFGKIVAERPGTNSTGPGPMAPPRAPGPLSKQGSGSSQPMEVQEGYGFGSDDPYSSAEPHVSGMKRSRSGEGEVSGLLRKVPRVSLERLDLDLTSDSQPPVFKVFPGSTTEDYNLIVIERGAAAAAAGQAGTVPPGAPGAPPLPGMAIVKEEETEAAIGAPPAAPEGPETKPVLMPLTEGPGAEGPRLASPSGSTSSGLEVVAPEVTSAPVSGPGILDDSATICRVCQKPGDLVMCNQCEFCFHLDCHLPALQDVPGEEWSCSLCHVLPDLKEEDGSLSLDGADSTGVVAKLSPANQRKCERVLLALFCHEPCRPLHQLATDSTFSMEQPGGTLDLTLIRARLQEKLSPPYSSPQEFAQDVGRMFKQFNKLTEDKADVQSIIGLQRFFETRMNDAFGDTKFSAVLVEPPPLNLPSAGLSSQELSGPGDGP
UniProt Q60596: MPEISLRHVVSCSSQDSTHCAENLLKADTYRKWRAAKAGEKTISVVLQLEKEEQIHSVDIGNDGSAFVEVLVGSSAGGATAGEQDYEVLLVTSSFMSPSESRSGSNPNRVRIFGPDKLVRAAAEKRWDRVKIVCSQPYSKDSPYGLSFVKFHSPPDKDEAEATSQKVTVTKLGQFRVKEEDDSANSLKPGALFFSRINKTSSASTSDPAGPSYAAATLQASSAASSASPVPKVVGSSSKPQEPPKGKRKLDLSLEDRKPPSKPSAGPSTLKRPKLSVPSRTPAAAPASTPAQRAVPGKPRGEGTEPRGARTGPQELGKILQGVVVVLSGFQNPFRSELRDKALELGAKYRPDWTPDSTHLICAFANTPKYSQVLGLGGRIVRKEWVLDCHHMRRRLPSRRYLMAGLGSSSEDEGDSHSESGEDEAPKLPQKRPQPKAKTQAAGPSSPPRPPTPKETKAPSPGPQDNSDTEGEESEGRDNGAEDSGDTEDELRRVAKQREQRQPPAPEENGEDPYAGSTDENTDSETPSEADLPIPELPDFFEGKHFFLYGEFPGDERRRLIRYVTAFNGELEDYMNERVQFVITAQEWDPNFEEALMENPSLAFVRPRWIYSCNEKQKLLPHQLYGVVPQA
UniProt P40201: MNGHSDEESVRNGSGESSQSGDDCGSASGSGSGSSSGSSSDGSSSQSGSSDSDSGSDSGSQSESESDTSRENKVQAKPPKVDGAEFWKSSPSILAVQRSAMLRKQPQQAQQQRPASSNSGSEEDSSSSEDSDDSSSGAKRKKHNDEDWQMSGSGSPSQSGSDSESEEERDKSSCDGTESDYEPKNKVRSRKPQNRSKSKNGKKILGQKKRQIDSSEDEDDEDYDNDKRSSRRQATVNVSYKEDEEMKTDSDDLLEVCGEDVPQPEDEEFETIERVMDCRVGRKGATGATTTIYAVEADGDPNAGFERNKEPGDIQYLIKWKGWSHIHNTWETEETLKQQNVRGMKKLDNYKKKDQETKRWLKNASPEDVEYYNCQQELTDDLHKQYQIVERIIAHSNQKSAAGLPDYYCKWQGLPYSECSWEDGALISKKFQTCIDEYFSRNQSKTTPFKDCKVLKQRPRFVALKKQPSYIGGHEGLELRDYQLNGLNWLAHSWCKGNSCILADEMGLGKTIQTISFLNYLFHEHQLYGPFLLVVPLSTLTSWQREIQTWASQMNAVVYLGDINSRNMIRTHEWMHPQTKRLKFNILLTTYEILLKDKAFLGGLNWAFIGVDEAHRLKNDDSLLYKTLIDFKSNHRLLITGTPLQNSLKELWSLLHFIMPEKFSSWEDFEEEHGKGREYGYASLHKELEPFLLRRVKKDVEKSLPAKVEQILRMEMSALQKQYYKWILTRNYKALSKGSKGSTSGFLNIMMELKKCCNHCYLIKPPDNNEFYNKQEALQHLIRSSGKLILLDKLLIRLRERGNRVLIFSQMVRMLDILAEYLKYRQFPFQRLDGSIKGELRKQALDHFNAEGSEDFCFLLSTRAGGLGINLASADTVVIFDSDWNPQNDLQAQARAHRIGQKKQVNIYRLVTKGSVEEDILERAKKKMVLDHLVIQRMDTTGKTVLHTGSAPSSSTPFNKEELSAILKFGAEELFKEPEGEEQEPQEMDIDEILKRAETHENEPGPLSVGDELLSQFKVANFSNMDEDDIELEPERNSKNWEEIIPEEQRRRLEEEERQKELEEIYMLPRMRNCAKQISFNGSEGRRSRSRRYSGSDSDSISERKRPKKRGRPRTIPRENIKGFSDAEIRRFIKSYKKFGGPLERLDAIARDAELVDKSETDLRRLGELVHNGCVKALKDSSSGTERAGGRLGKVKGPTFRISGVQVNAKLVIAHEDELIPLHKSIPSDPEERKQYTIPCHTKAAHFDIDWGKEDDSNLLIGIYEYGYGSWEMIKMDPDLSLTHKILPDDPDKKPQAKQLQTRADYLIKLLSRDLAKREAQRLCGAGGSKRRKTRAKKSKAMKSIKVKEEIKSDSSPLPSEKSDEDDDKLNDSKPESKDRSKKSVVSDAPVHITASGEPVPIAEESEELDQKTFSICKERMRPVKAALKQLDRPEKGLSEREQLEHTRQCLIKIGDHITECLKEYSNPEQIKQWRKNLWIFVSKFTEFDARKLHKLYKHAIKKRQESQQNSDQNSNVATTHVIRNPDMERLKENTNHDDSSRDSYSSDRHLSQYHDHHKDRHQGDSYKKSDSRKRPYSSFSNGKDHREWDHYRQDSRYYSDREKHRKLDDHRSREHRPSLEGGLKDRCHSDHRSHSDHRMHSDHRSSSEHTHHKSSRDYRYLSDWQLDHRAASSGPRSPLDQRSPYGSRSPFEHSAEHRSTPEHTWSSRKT

Experiments:
Experiment in all cases: co-IP; 100 ug nuclear extract of ES cells, 150 mM final NaCl, Protein A or G Dynabeads with antibodies (Flag, Kap1, Atm phospho S1981, Atr, Parp1, Top2β, Xrcc1); beads washed three times in buffer B; Western blot
[1] = target: topoisomerase 2β (Top2β) (mouse (endogenous in ES cells)) (UniProt Q64511)
[2] = target: Parp1 (mouse (endogenous in ES cells)) (UniProt P11103)
[3] = target: Kap1 (mouse (endogenous in ES cells)) (UniProt Q62318)
[4] = target: single-stranded repair factor Xrcc1 (mouse (endogenous in ES cells)) (UniProt Q60596)

For “Chd1 (endogenous, wild-type ES cells) (from UniProt P40201 1-1711) (enzyme)”, the binding [1] was “binds”, the binding [2] was “binds” and the binding [3] was “binds”. The binding [4] was “no binding”.
